Results: the supplement of paper PMC8728848
Some of the results follow.

How the values were obtained:
Assay in all cases: glycan array binding signal (z-score within array); higher = stronger binding
Conditions in all cases: glycan notation: IUPAC condensed, linker removed
Neu5Ac(a2-3)GalNAc = molecular target: Neu5Ac(a2-3)GalNAc
Outline: (§1)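 Columns mapping to the same glycan were averaged after glycan names were converted to IUPAC-condensed notation. The data come from 3228 arrays in the Consortium for Functional Glycomics database, limited to those with an available protein sequence. Binding is reported as a within-array Z-score averaged across arrays of one protein sequence and across linkers.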

[1] = molecular target: Neu5Ac(a2-3)GalNAc(b1-4)GlcNAc
Outline: as §1

[2] = molecular target: Neu5Ac(a2-3)[GalNAc(b1-4)]Gal(b1-4)Glc
Outline: as §1

[3] = molecular target: Neu5Ac(a2-3)[GalNAc(b1-4)]Gal(b1-4)GlcNAc
Outline: as §1

[4] = molecular target: Neu5Ac(a2-3)[GalNAc(b1-4)]Gal(b1-4)GlcNAc(b1-3)GalNAc
Outline: as §1

[5] = molecular target: Neu5Ac(a2-3)[Neu5Ac(a2-6)]GalNAc
Outline: as §1

Neu5Ac(a2-6)Gal = molecular target: Neu5Ac(a2-6)Gal
Outline: as §1

[6] = molecular target: Neu5Ac(a2-6)Gal(b1-3)GlcNAc(b1-3)[Gal(b1-4)GlcNAc(b1-6)]Gal(b1-4)Glc
Outline: as §1

Neu5Ac(a2-6)Gal(b1-4)Glc = molecular target: Neu5Ac(a2-6)Gal(b1-4)Glc
Outline: as §1

[7] = molecular target: Neu5Ac(a2-6)Gal(b1-4)GlcNAc
Outline: as §1

[8] = molecular target: Neu5Ac(a2-6)Gal(b1-4)GlcNAc(b1-2)Man
Outline: as §1

[9] = molecular target: Neu5Ac(a2-6)Gal(b1-4)GlcNAc(b1-2)Man(a1-3)Man(b1-4)GlcNAc(b1-4)GlcNAc
Outline: as §1

[10] = molecular target: Neu5Ac(a2-6)Gal(b1-4)GlcNAc(b1-2)Man(a1-3)[Gal(b1-4)GlcNAc(b1-2)Man(a1-6)]Man(b1-4)GlcNAc(b1-4)GlcNAc
Outline: as §1

[11] = molecular target: Neu5Ac(a2-6)Gal(b1-4)GlcNAc(b1-2)Man(a1-3)[GlcNAc(b1-2)Man(a1-6)]Man(b1-4)GlcNAc(b1-4)GlcNAc
Outline: as §1

[12] = molecular target: Neu5Ac(a2-6)Gal(b1-4)GlcNAc(b1-2)Man(a1-3)[GlcNAc(b1-4)][Neu5Ac(a2-6)Gal(b1-4)GlcNAc(b1-2)Man(a1-6)]Man(b1-4)GlcNAc(b1-4)GlcNAc
Outline: as §1

[13] = molecular target: Neu5Ac(a2-6)Gal(b1-4)GlcNAc(b1-2)Man(a1-3)[Man(a1-6)]Man(b1-4)GlcNAc(b1-4)GlcNAc
Outline: as §1

[14] = molecular target: Neu5Ac(a2-6)Gal(b1-4)GlcNAc(b1-2)Man(a1-3)[Neu5Ac(a2-3)Gal(b1-4)GlcNAc(b1-2)Man(a1-6)]Man(b1-4)GlcNAc(b1-4)GlcNAc
Outline: as §1

[15] = molecular target: Neu5Ac(a2-6)Gal(b1-4)GlcNAc(b1-2)Man(a1-3)[Neu5Ac(a2-6)Gal(b1-4)GlcNAc(b1-2)Man(a1-6)]Man(b1-4)GlcNAc(b1-4)GlcNAc
Outline: as §1

[16] = molecular target: Neu5Ac(a2-6)Gal(b1-4)GlcNAc(b1-2)Man(a1-3)[Neu5Ac(a2-6)Gal(b1-4)GlcNAc(b1-2)Man(a1-6)]Man(b1-4)GlcNAc(b1-4)[Fuc(a1-6)]GlcNAc
Outline: as §1

[17] = molecular target: Neu5Ac(a2-6)Gal(b1-4)GlcNAc(b1-2)Man(a1-6)Man(b1-4)GlcNAc(b1-4)GlcNAc
Outline: as §1

[18] = molecular target: Neu5Ac(a2-6)Gal(b1-4)GlcNAc(b1-2)Man(a1-6)[Gal(b1-4)GlcNAc(b1-2)Man(a1-3)]Man(b1-4)GlcNAc(b1-4)GlcNAc
Outline: as §1

[19] = molecular target: Neu5Ac(a2-6)Gal(b1-4)GlcNAc(b1-2)Man(a1-6)[GlcNAc(b1-2)Man(a1-3)]Man(b1-4)GlcNAc(b1-4)GlcNAc
Outline: as §1

[20] = molecular target: Neu5Ac(a2-6)Gal(b1-4)GlcNAc(b1-2)Man(a1-6)[Man(a1-3)]Man(b1-4)GlcNAc(b1-4)GlcNAc
Outline: as §1

[21] = molecular target: Neu5Ac(a2-6)Gal(b1-4)GlcNAc(b1-2)[Neu5Ac(a2-6)Gal(b1-4)GlcNAc(b1-4)]Man(a1-3)[GlcNAc(b1-4)][Neu5Ac(a2-6)Gal(b1-4)GlcNAc(b1-2)[Neu5Ac(a2-6)Gal(b1-4)GlcNAc(b1-6)]Man(a1-6)]Man(b1-4)GlcNAc(b1-4)GlcNAc
Outline: as §1

[22] = molecular target: Neu5Ac(a2-6)Gal(b1-4)GlcNAc(b1-2)[Neu5Ac(a2-6)Gal(b1-4)GlcNAc(b1-4)]Man(a1-3)[GlcNAc(b1-4)][Neu5Ac(a2-6)Gal(b1-4)GlcNAc(b1-4)Man(a1-6)]Man(b1-4)GlcNAc(b1-4)GlcNAc
Outline: as §1

[23] = molecular target: Neu5Ac(a2-6)Gal(b1-4)GlcNAc(b1-2)[Neu5Ac(a2-6)Gal(b1-4)GlcNAc(b1-6)]Man(a1-6)[Neu5Ac(a2-6)Gal(b1-4)GlcNAc(b1-2)Man(a1-3)][GlcNAc(b1-4)]Man(b1-4)GlcNAc(b1-4)GlcNAc
Outline: as §1

[24] = molecular target: Neu5Ac(a2-6)Gal(b1-4)GlcNAc(b1-3)Gal(b1-3)GlcNAc
Outline: as §1

[25] = molecular target: Neu5Ac(a2-6)Gal(b1-4)GlcNAc(b1-3)Gal(b1-4)GlcNAc
Outline: as §1

[26] = molecular target: Neu5Ac(a2-6)Gal(b1-4)GlcNAc(b1-3)Gal(b1-4)GlcNAc(b1-2)Man(a1-3)[Neu5Ac(a2-6)Gal(b1-4)GlcNAc(b1-3)Gal(b1-4)GlcNAc(b1-2)Man(a1-6)]GalNAc
Outline: as §1

[27] = molecular target: Neu5Ac(a2-6)Gal(b1-4)GlcNAc(b1-3)Gal(b1-4)GlcNAc(b1-3)Gal(b1-4)GlcNAc
Outline: as §1

[28] = molecular target: Neu5Ac(a2-6)Gal(b1-4)GlcNAc(b1-3)Gal(b1-4)GlcNAc(b1-3)Gal(b1-4)GlcNAc(b1-2)Man(a1-3)[Neu5Ac(a2-6)Gal(b1-4)GlcNAc(b1-3)Gal(b1-4)GlcNAc(b1-3)Gal(b1-4)GlcNAc(b1-2)Man(a1-6)]GalNAc
Outline: as §1

[29] = molecular target: Neu5Ac(a2-6)Gal(b1-4)GlcNAc(b1-3)Gal(b1-4)GlcNAc(b1-3)GalNAc
Outline: as §1

[30] = molecular target: Neu5Ac(a2-6)Gal(b1-4)GlcNAc(b1-3)Gal(b1-4)GlcNAc(b1-3)[Neu5Ac(a2-6)Gal(b1-4)GlcNAc(b1-3)Gal(b1-4)GlcNAc(b1-6)]GalNAc
Outline: as §1

[31] = molecular target: Neu5Ac(a2-6)Gal(b1-4)GlcNAc(b1-3)Gal(b1-4)GlcNAc(b1-6)[Gal(b1-3)]GalNAc
Outline: as §1

[32] = molecular target: Neu5Ac(a2-6)Gal(b1-4)GlcNAc(b1-3)Gal(b1-4)[Fuc(a1-3)]GlcNAc(b1-3)Gal(b1-4)[Fuc(a1-3)]GlcNAc
Outline: as §1

[33] = molecular target: Neu5Ac(a2-6)Gal(b1-4)GlcNAc(b1-3)GalNAc
Outline: as §1

[34] = molecular target: Neu5Ac(a2-6)Gal(b1-4)GlcNAc(b1-3)[Neu5Ac(a2-6)Gal(b1-4)GlcNAc(b1-6)]GalNAc
Outline: as §1

B1: Aap brpt (Staphylococcus epidermidis) (protein)
chain: VDGDPITSTEEIPFDKKREFDPNLAPGTEKVVQKGEPGTKTITTPTTKNPLTGEKVGEGEPTEKITKQPVDEIVHYGGEEIKTGHKDEFDPNAPKGSQTTQPGKPGVKNPDTGEVVTPPVDDVTKYGPVDGDPITSTEEIPFDKKREFDPNLAPGTEKVVQKGEPGTKTITTPTTKNPLTGEKVGEGEPTEKITKQPVDEIVHYGGEEIKPGHKDEFDPNAPKGSQEDVPGKPGVKNPDTGEVVTPPVDDVTKYGPVDGDSITSTEEIPFDKKREFDPNLAPGTEKVVQKGEPGTKTITTPTTKNPLTGEKVGEGEPTEKITKQPVDEIVHYGGEQIPQGHKDEFDPNAPVDSKTEVPGKPGVKNPDTGEVVTPPVDDVTKYGPVDGDSITSTEEIPFDKKREFDPNLAPGTEKVVQKGEPGTKTITTPTTKNPLTGEKVGEGKSTEKVTKQPVDEIVEYGPTK
Q: B1 was tested. Which “glycan array binding signal (z-score)” value (Neu5Ac(a2-3)GalNAc) did it give?
A: 0.44

Q: And the “glycan array binding signal (z-score)” value [1]?
A: 0.259

Q: What about the “glycan array binding signal (z-score)” value [2] of the same binder?
A: -1.15

Q: What about the “glycan array binding signal (z-score)” value [3] of the same binder?
A: 0.696

Q: And the “glycan array binding signal (z-score)” value [4]?
A: -0.062

Q: What about the “glycan array binding signal (z-score)” value [5] of the same binder?
A: -0.31

Q: What about the “glycan array binding signal (z-score)” value (Neu5Ac(a2-6)Gal) of the same binder?
A: 0.426

Q: What about the “glycan array binding signal (z-score)” value [6] of the same binder?
A: -0.86

Q: What about the “glycan array binding signal (z-score)” value (Neu5Ac(a2-6)Gal(b1-4)Glc) of the same binder?
A: -0.91

Q: What about the “glycan array binding signal (z-score)” value [7] of the same binder?
A: -0.403

Q: What about the “glycan array binding signal (z-score)” value [8] of the same binder?
A: 0.919

Q: And the “glycan array binding signal (z-score)” value [9]?
A: 0.418

Q: And the “glycan array binding signal (z-score)” value [10]?
A: 0.674

Q: What about the “glycan array binding signal (z-score)” value [11] of the same binder?
A: -0.817

Q: And the “glycan array binding signal (z-score)” value [12]?
A: 0.067

Q: What about the “glycan array binding signal (z-score)” value [13] of the same binder?
A: -0.756

Q: What about the “glycan array binding signal (z-score)” value [14] of the same binder?
A: -0.038

Q: And the “glycan array binding signal (z-score)” value [15]?
A: -1.33

Q: And the “glycan array binding signal (z-score)” value [16]?
A: 1.38

Q: What about the “glycan array binding signal (z-score)” value [17] of the same binder?
A: -0.15

Q: And the “glycan array binding signal (z-score)” value [18]?
A: 0.913

Q: What about the “glycan array binding signal (z-score)” value [19] of the same binder?
A: -0.277

Q: What about the “glycan array binding signal (z-score)” value [20] of the same binder?
A: -0.164

Q: And the “glycan array binding signal (z-score)” value [21]?
A: -0.052

Q: And the “glycan array binding signal (z-score)” value [22]?
A: -1.33

Q: What about the “glycan array binding signal (z-score)” value [23] of the same binder?
A: -0.013

Q: And the “glycan array binding signal (z-score)” value [24]?
A: -0.549

Q: What about the “glycan array binding signal (z-score)” value [25] of the same binder?
A: -0.137

Q: What about the “glycan array binding signal (z-score)” value [26] of the same binder?
A: -0.165

Q: And the “glycan array binding signal (z-score)” value [27]?
A: 0.025

Q: What about the “glycan array binding signal (z-score)” value [28] of the same binder?
A: 0.366

Q: What about the “glycan array binding signal (z-score)” value [29] of the same binder?
A: -0.611

Q: And the “glycan array binding signal (z-score)” value [30]?
A: 2.85

Q: What about the “glycan array binding signal (z-score)” value [31] of the same binder?
A: 2.73

Q: What about the “glycan array binding signal (z-score)” value [32] of the same binder?
A: -0.198

Q: What about the “glycan array binding signal (z-score)” value [33] of the same binder?
A: -1.43

Q: What about the “glycan array binding signal (z-score)” value [34] of the same binder?
A: -0.098
